Reference: the supplement of paper PMC10849652
This is one part of the list.

The chains behind the UniProt entries cited, without tags or fusion partners. Where a name states a change or a piece, a line headed by the entry shows the natural chain unless it says otherwise.
NBDY, A0A0U1RRE5, UniProt A0A0U1RRE5, whole entry, looked up: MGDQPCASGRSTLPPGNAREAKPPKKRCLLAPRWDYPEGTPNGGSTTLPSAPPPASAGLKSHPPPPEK
UniProt Q8N6N6: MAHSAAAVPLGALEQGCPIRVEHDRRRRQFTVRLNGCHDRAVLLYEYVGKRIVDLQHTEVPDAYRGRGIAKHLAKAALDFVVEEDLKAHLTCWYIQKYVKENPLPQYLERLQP
UniProt P52848: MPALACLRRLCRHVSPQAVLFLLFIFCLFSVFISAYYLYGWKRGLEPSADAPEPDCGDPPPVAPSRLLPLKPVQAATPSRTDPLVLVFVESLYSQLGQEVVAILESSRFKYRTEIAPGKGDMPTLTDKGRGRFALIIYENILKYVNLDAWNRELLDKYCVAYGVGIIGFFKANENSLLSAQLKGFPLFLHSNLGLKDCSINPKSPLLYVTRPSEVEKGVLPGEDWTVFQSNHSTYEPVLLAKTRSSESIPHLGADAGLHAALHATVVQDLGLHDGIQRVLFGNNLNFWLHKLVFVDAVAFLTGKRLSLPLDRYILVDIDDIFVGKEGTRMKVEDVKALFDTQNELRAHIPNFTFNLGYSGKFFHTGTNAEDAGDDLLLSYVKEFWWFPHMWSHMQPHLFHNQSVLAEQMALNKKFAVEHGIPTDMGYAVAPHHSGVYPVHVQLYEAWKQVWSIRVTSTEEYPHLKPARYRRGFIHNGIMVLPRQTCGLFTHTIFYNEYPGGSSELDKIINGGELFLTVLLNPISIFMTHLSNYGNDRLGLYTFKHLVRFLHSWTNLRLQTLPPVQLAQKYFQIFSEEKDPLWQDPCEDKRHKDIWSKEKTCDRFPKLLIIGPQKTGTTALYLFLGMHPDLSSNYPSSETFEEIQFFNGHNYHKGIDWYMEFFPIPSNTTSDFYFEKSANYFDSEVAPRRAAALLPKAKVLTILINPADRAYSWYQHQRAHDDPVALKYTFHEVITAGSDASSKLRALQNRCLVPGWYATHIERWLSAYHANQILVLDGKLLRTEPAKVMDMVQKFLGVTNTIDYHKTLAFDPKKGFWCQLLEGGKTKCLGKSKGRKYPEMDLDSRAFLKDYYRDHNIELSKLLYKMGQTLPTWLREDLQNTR
UniProt O43677, whole entry, looked up: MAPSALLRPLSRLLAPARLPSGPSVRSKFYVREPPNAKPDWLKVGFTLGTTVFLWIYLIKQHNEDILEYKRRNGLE
UniProt Q9GZM8: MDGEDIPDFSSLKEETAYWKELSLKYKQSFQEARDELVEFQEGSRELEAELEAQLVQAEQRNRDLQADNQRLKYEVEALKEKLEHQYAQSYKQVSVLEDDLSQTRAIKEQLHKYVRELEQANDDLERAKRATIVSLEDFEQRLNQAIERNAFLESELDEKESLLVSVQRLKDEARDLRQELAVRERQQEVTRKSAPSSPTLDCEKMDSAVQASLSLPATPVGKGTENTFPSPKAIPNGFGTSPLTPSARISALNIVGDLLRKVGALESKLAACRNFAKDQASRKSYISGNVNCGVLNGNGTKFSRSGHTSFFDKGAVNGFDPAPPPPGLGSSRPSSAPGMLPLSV

Legend:
Assay in all cases: log2 fold change, soluble protein after heating vs DMSO (PISA); higher = thermal stabilisation; K562 cells, 10 uM, 30 min; active = over 0.2 and 3.5 SD of the protein, either way, in both replicates (recomputed)
[1] = compound: CC1=C(C=C(C=C1)NC(=O)C2=CC(=CC=C2)N(C)C)NC(=O)C3=CC=C(C=C3)O
Method in brief: (§1)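 Values are thermal stability changes relative to control samples and are taken from duplicates. They are stated as log2 fold changes. Before quantification by TMTpro 16plex LC-MS/MS with equalised channel sums, K562 cells at 2×10^6 cells/mL were treated with 10 μM compound for 30 min, heated in aliquots for 3 min across 48°C-58°C, pooled, extracted in PBS with 0.5% NP-40 at 4°C, and centrifuged at 21,000xg for 90 min to give the soluble supernatant.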

[2] = compound: CC1=CC=C(C=C1)SC2=C3C=C(SC3=CN=C2)C(=O)N
Method in brief: as §1

Nexturastat A = compound: CCCCN(Cc1ccc(C(=O)NO)cc1)C(=O)Nc1ccccc1 [Nexturastat A]
Method in brief: as §1

[3] = compound: CCCS(=O)(=O)Nc1ccc(F)c(C(=O)c2c[nH]c3ncc(Cl)cc23)c1F
Method in brief: as §1

[4] = compound: CCCc1cc(C)[nH]c(=O)c1CNC(=O)c1cc(-c2ccnc(N3CCN(C)CC3)c2)cc2c1cnn2C(C)C
Method in brief: as §1

givinostat = compound: CCN(CC)Cc1ccc2cc(COC(=O)Nc3ccc(C(=O)NO)cc3)ccc2c1 [givinostat]
Method in brief: as §1

barasertib = compound: CCN(CCCOc1ccc2c(Nc3cc(CC(=O)Nc4cccc(F)c4)[nH]n3)ncnc2c1)CCOP(=O)(O)O [barasertib]
Method in brief: as §1

volasertib = compound: CC[C@@H]1C(=O)N(C)c2cnc(Nc3ccc(C(=O)N[C@H]4CC[C@H](N5CCN(CC6CC6)CC5)CC4)cc3OC)nc2N1C(C)C [volasertib]
Method in brief: as §1

[5] = compound: CC[C@H](C)N1C=C(C2=C(C=C(C=C21)C3=CN=C(C=C3)N4CCNCC4)C(=O)NCC5=C(C=C(NC5=O)C)C)C
Method in brief: as §1

epoxomicin = compound: CC[C@H](C)[C@@H](C(=O)N[C@@H]([C@@H](C)O)C(=O)N[C@@H](CC(C)C)C(=O)[C@]1(CO1)C)NC(=O)[C@H]([C@@H](C)CC)N(C)C(=O)C [epoxomicin]
Method in brief: as §1

[6] = compound: CCn1c(C(=O)N(C2CC2)C2CC2)cc2c3c(ncn3C)c(Nc3cc(C)n(C)n3)nc21
Method in brief: as §1

[7] = compound: CCn1cc(-c2ccnc3[nH]c(-c4cccc(CN(C)C)c4)cc23)c(-c2ccc(NC(=O)N(C)C)cc2)n1
Method in brief: as §1

rosiglitazone = compound: CN(CCOC1=CC=C(C=C1)C[C@H]2C(=O)NC(=O)S2)C3=CC=CC=N3 (racemic) [rosiglitazone]
Method in brief: as §1

[8] = compound: CN1C2=C(C3=C1C(=O)N(N=C3)CC4=CC(=CC=C4)N)SC(=C2)S(=O)C
Method in brief: as §1

[9] = compound: CN1CCC(CNc2ccc3ncc(-c4cccc(OC(F)(F)F)c4)n3n2)CC1
Method in brief: as §1

[10] = compound: CC1=C(C=C(C=C1)NC(=O)C2=CC(=CC=C2)C(C)(C)C#N)NC3=CC4=C(C=C3)N=CN(C4=O)C
Method in brief: as §1

[11] = compound: CC1=NC(=CC=C1)C2=C(N=C(N2)C(C)(C)C)C3=CC4=NC=CN=C4C=C3
Method in brief: as §1

vemurafenib = compound: CCCS(=O)(=O)Nc1ccc(F)c(C(=O)c2c[nH]c3ncc(-c4ccc(Cl)cc4)cc23)c1F [vemurafenib]
Method in brief: as §1

[12] = compound: CC[C@@H]1C(=O)N(C)c2cnc(Nc3ccc(C(=O)NC4CCN(C)CC4)cc3OC)nc2N1C1CCCC1
Method in brief: as §1

[13] = compound: CN(C)CC(=O)Nc1ccc2[nH]c(=O)c3ccccc3c2c1
Method in brief: as §1

Measured: log2 fold change

NBDY, A0A0U1RRE5
inactive: [1] 0.112 | [2] -0.262 | Nexturastat A 0.094 | [3] -0.026 | [4] -0.005 | givinostat 0 | barasertib 0.047 | volasertib 0.187 | [5] -0.067 | epoxomicin 0.449 | [6] -0.137 | [7] 0.008 | rosiglitazone 0.22 | [8] 0.129 | [9] 0.021

NATD1 (UniProt Q8N6N6)
inactive: [2] -0.141 | [3] 0.146 | [4] -0.148 | volasertib -0.344 | [5] 0.086

NDRG2 (UniProt G3V2A6)
inactive: givinostat 0.11 | [6] 0.016

NDST1 (UniProt P52848)
inactive: [10] 0.048 | [2] -0.048 | [11] 0.001 | Nexturastat A 0.005 | vemurafenib -0.101 | [3] 0.012 | [4] 0.091 | givinostat 0.046 | barasertib -0.091 | [12] -0.015 | volasertib -0.031 | [5] 0.076 | epoxomicin -0.052 | [6] -0.023 | [7] 0.053 | [13] 0.001 | rosiglitazone 0.059 | [8] 0.013 | [9] 0.009

NDUFC1 (UniProt O43677)
inactive: Nexturastat A -0.171 | givinostat -0.004 | [12] 0.069 | epoxomicin 0.215 | [6] -0.028

NDEL1 isoform 2 (UniProt Q9GZM8)
inactive: [1] 0.018 | [2] 0.041 | Nexturastat A 0.052 | vemurafenib -0.014 | [3] -0.011 | [4] -0.099 | givinostat -0.029 | barasertib 0.059 | [12] -0.195 | volasertib -0.022 | [5] -0.006 | epoxomicin -0.007 | [6] 0.003 | [7] -0.02 | [13] -0.036 | rosiglitazone -0.035 | [8] -0.109 | [9] -0.059

NA (UniProt J3KR12)
inactive: [1] 0.018 | [11] 0.073 | Nexturastat A -0.283 | [4] -0.046 | barasertib 0 | [5] -0.021 | epoxomicin 0.079

NAP1L1 (UniProt B7Z9C2)
inactive: [11] 0.14 | vemurafenib -0.304 | [4] -0.109 | givinostat -0.053 | barasertib -0.002 | [12] -0.118 | [5] -0.008 | [7] 0 | [13] -0.244 | [8] -0.053 | [9] -0.152
